Measurements taken from patent publication US20220319656A1, “AUTOMATED LITERATURE META ANALYSIS USING HYPOTHESIS GENERATORS AND AUTOMATED SEARCH” (TECHNION RESEARCH & DEVELOPMENT FOUNDATION, priority 2019, published 2022).
At least one structure is not confirmed: it was looked up by name or label, or the drawing left a doubt.

Columns and labels:
hepatocellular carcinoma = conditions: patients that developed resistance to sorafenib as first line therapy; cited from earlier work
MG63 = experiment: Cell viability assay (MTT), in vitro screen, MG63 cells; type: cell-based, Human; conditions: 72 h
Procedure: Human osteosarcoma MG-63, U2OS cell lines were kind gift from David Meiri, and head and neck FaDu cell line were a kind gift of Moshe Elkabetz. These cells were incubated under standard conditions of 37° C., 5% CO2, and 95% humidity. MG-63 and U2OS cells were cultured in RPMI-1640 (Biological Industries) containing 10% fetal bovine serum, 2 mM L-Glutamine (Biological Industries) and 1% penicillin/streptomycin (Biological Industries).
5000 cells per well in 0.2 ml growth media were seeded in a 96-well plate and allowed to attach for 24 hours. After 24 hours the cells were exposed to logarithmic gradient of drugs (Gemcitabine, Sorafenib, Nilotinib, Carfilzomib, Nintedanib, Trametinib, Cabozantinib, Ponatinib, Infigratinib, Duvelisib).
Cell survival for the cell lines was assayed after 3 days from adding the drugs. For the U20S and MG-63 by adding […] (5 mg/ml) in DDW to each well. After 3 hours, the solution was removed and 200 μl of DMSO was added. For the Fadu cell line by adding 30 μl of MTT solution (5 mg/ml) in DDW to each well. After 1 hour, the solution was removed and 100 μl of DMSO was added to dissolve the formazan crystals. Cell viability was evaluated by measuring the absorbance of each well using a Synergy H1 (BioTek) plate reader at 570 nm relative to control wells.

SMILES | clinical outcome (hepatocellular carcinoma) | potency / growth inhibition in the in-vitro screen (MG63)
COc1cc2nccc(Oc3ccc(NC(=O)C4(C(=O)Nc5ccc(F)cc5)CC4)cc3)c2cc1OC [Cabozantinib] | clinical benefit | –
CC(=O)Nc1cccc(-n2c(=O)n(C3CC3)c(=O)c3c(Nc4ccc(I)cc4F)n(C)c(=O)c(C)c32)c1 [trametinib] | – | Potent growth inhibition
